Laboratory results as given in the supplement of paper PMC12282887.
Values are raw readings; no control value is given beside them.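 For antimicrobials the highest concentration approximated the MIC. Most other compounds topped out at 500 µM, and known inducer-like compounds reached up to 1 mM. Inocula for deletion strains were tenfold smaller, and any well growing below 10% of the overall median was considered non-growing.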

Tested on: Escherichia coli BW25113
Experiment: growth (OD600 area under curve, 8 h) (OD600 x h); higher = more growth
Procedure: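 E. coli BW25113 reporter strains (wild type, ΔmarA, ΔsoxS, Δrob, each carrying one of 8 lux reporter plasmids) were grown in 40 µl LB in 384-well plates at 37°C, 800 rpm, with each compound at 4 two-fold concentrations, in biological duplicates. Growth is the baseline-corrected OD600 area under the curve over 8 h (0-8 h WT, 1-9 h deletion strains).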

Cc1onc(-c2ccccc2)c1C(=O)N[C@@H]1C(=O)N2[C@@H]1SC(C)(C)[C@@H]2C(=O)O [Oxacillin]
growth
Conditions	reporter plasmid: EVC	reporter plasmid: acrABp	reporter plasmid: marRABp	reporter plasmid: micFp	reporter plasmid: ompFp	reporter plasmid: robp	reporter plasmid: soxSp	reporter plasmid: tolCp
0.53 µg/ml, genetic background: wild type	3.08	3.04	3.21	3.13	3	3.28	3.218	3.311
0.53 µg/ml, genetic background: ΔmarA	3.09	4.16	3.46	3.12	3.19	3.49	2.87	2.84
0.53 µg/ml, genetic background: Δrob	3.04	3.09	3.42	3.01	2.32	2.76	3.1	3.22
0.53 µg/ml, genetic background: ΔsoxS	3.33	3.24	3.07	2.98	3.09	3.12	3.15	3.2
1.1 µg/ml, genetic background: wild type	2.96	3.02	3.1	3.19	3.12	3.27	3.115	3.26
1.1 µg/ml, genetic background: ΔmarA	3.04	3.93	3.36	3.22	3.29	3.42	2.9	2.94
1.1 µg/ml, genetic background: Δrob	3.06	2.71	3.29	3.07	2.24	2.64	3.05	3.19
1.1 µg/ml, genetic background: ΔsoxS	3.19	2.95	2.91	3.09	2.94	2.97	3	3.05
2.1 µg/ml, genetic background: wild type	3.17	2.99	3.41	3.26	3.26	3.38	3.17	3.257
2.1 µg/ml, genetic background: ΔmarA	3	4.27	3.584	3.25	3.49	3.89	2.85	3.01
2.1 µg/ml, genetic background: Δrob	3.07	3.21	3.54	3.05	2.71	2.86	2.96	3.47
2.1 µg/ml, genetic background: ΔsoxS	3.27	3.25	3.33	3.07	3.21	3.37	3.22	3.32
4.2 µg/ml, genetic background: wild type	3	2.62	3.02	3.1	3.14	3.13	3.07	3.2
4.2 µg/ml, genetic background: ΔmarA	2.88	3.5	3.23	3.02	3.13	3.11	2.7	2.79
4.2 µg/ml, genetic background: Δrob	3.1	2.58	3.19	2.84	2.47	2.65	2.94	3.22
4.2 µg/ml, genetic background: ΔsoxS	3.26	2.86	2.78	2.74	2.9	2.94	2.88	3.008

CC1(C)S[C@@H]2[C@H](NC(=O)Cc3ccccc3)C(=O)N2[C@H]1C(=O)O [Penicillin G]
growth
Conditions	reporter plasmid: EVC	reporter plasmid: acrABp	reporter plasmid: marRABp	reporter plasmid: micFp	reporter plasmid: ompFp	reporter plasmid: robp	reporter plasmid: soxSp	reporter plasmid: tolCp
0.47 µg/ml, genetic background: wild type	3.228	3.33	3.32	3.25	3.193	3.43	3.135	3.26
0.47 µg/ml, genetic background: ΔmarA	3.27	4.43	3.81	3.17	3.53	3.91	2.81	2.97
0.47 µg/ml, genetic background: Δrob	2.93	3.29	3.42	3.15	2.61	2.94	2.94	3.27
0.47 µg/ml, genetic background: ΔsoxS	3.38	3.09	3.37	3.027	3.21	3.36	3.27	3.21
0.93 µg/ml, genetic background: wild type	3	3.14	3.14	3.22	3.09	3.22	3.19	3.28
0.93 µg/ml, genetic background: ΔmarA	3.05	4.21	3.92	3.32	3.75	3.94	2.79	2.96
0.93 µg/ml, genetic background: Δrob	3.02	2.86	3.42	3.21	2.33	2.69	2.77	3.33
0.93 µg/ml, genetic background: ΔsoxS	3.29	3.176	3.1	2.97	3.15	2.94	3.12	3.27
1.9 µg/ml, genetic background: wild type	3.124	3.47	3.56	3.16	3.47	3.62	3.12	3.17
1.9 µg/ml, genetic background: ΔmarA	3.39	4.46	3.98	3.07	3.73	4.19	2.99	3.12
1.9 µg/ml, genetic background: Δrob	2.93	3.39	3.67	3.27	2.7	2.96	3.02	3.29
1.9 µg/ml, genetic background: ΔsoxS	3.11	3.58	3.37	2.83	3.33	3.2	3.27	3.25
3.7 µg/ml, genetic background: wild type	3.05	2.93	3.27	3.19	2.87	2.62	2.89	3.2
3.7 µg/ml, genetic background: ΔmarA	3.01	4.05	3.51	3.16	3.46	3.68	2.8	2.9
3.7 µg/ml, genetic background: Δrob	2.87	2.89	3.21	2.85	2.12	2.65	2.64	3.22
3.7 µg/ml, genetic background: ΔsoxS	3.3	3.21	3.1	2.681	2.6	2.94	3.12	3.21

CCN1CCN(C(=O)N[C@@H](C(=O)N[C@@H]2C(=O)N3[C@@H]2SC(C)(C)[C@@H]3C(=O)O)c2ccccc2)C(=O)C1=O [Piperacillin]
growth
Conditions	reporter plasmid: EVC	reporter plasmid: acrABp	reporter plasmid: marRABp	reporter plasmid: micFp	reporter plasmid: ompFp	reporter plasmid: robp	reporter plasmid: soxSp	reporter plasmid: tolCp
0.034 µg/ml, genetic background: wild type	3.234	3.26	3.39	3.16	3.35	3.51	3.15	3.269
0.034 µg/ml, genetic background: ΔmarA	3.18	4.24	3.83	3.46	3.83	4	3.09	3.14
0.034 µg/ml, genetic background: Δrob	3.07	2.99	3.47	3.31	2.9	2.73	2.997	3.24
0.034 µg/ml, genetic background: ΔsoxS	3.36	3.47	3.32	3.04	3.15	3.45	3.28	3.39
0.067 µg/ml, genetic background: wild type	3.126	3.22	3.36	3.15	3.3	3.457	3.06	3.28
0.067 µg/ml, genetic background: ΔmarA	3.1	4.28	3.99	3.36	3.85	4.13	3.11	3.13
0.067 µg/ml, genetic background: Δrob	2.89	3.1	3.59	3.3	2.92	2.78	2.74	3.22
0.067 µg/ml, genetic background: ΔsoxS	3.111	3.35	3.35	2.79	3.14	3.19	3.1	3.24
0.13 µg/ml, genetic background: wild type	3.25	3.34	3.36	3.15	3.44	3.59	3.14	3.24
0.13 µg/ml, genetic background: ΔmarA	3.34	4.25	3.8	3.31	3.73	4.18	3.18	3.21
0.13 µg/ml, genetic background: Δrob	3.34	3.33	3.72	3.38	2.96	2.73	3.026	3.43
0.13 µg/ml, genetic background: ΔsoxS	3.48	3.68	3.51	3.2	3.33	3.49	3.36	3.3807
0.27 µg/ml, genetic background: wild type	3.01	3.097	3.04	2.99	2.96	2.81	2.88	3.17
0.27 µg/ml, genetic background: ΔmarA	3.31	3.13	3.04	3.25	2.62	3.47	3.05	3.12
0.27 µg/ml, genetic background: Δrob	2.98	2.81	3.35	3.01	2.003	2.29	2.82	3.21
0.27 µg/ml, genetic background: ΔsoxS	3.03	3.09	3.02	2.746	2.4	2.77	2.9	3.24

COc1ccc(C[C@H](N)C(=O)N[C@H]2[C@@H](O)[C@H](n3cnc4c(N(C)C)ncnc43)O[C@@H]2CO)cc1 [Puromycin]
growth
Conditions	reporter plasmid: EVC	reporter plasmid: acrABp	reporter plasmid: marRABp	reporter plasmid: micFp	reporter plasmid: ompFp	reporter plasmid: robp	reporter plasmid: soxSp	reporter plasmid: tolCp
3.1 µg/ml, genetic background: wild type	3.05	3.32	3.29	3.21	3.01	3.237	3.17	3.19
3.1 µg/ml, genetic background: ΔmarA	3.12	4.03	3.47	3.27	3.5	3.74	2.97	2.73
3.1 µg/ml, genetic background: Δrob	3.31	3.01	3.32	2.97	2.5	2.76	3.034	3.25
3.1 µg/ml, genetic background: ΔsoxS	3.28	3.23	3.1	3.14	3.04	3.32	2.79	3.23
6.1 µg/ml, genetic background: wild type	2.89	3.24	3.2	3.02	2.92	2.93	2.89	3.07
6.1 µg/ml, genetic background: ΔmarA	2.93	3.75	3.29	3.06	3.26	3.39	2.88	2.72
6.1 µg/ml, genetic background: Δrob	2.95	2.44	3.19	2.86	2.4	2.55	2.88	3.18
6.1 µg/ml, genetic background: ΔsoxS	3.17	2.98	2.88	2.86	2.97	3.03	2.942	3.21
12.2 µg/ml, genetic background: wild type	2.85	3.31	3.23	2.92	3.17	2.97	3.1	3.062
12.2 µg/ml, genetic background: ΔmarA	2.68	3.66	2.98	3.07	3.26	3.62	2.93	2.44
12.2 µg/ml, genetic background: Δrob	2.74	2.81	3.11	2.77	2.33	2.65	3.06	3.01
12.2 µg/ml, genetic background: ΔsoxS	3.17	3.072	3.05	2.74	2.87	3.28	2.93	3.13
24.5 µg/ml, genetic background: wild type	2.22	0.641	1.6	1.34	0.339	0.646	2.53	2.2
24.5 µg/ml, genetic background: ΔmarA	0.52	-0.12	-0.0591	0.501	-0.0215	0.703	2.25	0.35
24.5 µg/ml, genetic background: Δrob	1.54	0.266	0.359	0.694	-0.0588	0.0268	2.4	1.81
24.5 µg/ml, genetic background: ΔsoxS	2.21	0.181	0.0924	0.884	-0.0137	-0.00984	1.06	2.31

O=c1c(O)c(-c2ccc(O)c(O)c2)oc2cc(O)cc(O)c12 [Quercetin]
growth
Conditions	reporter plasmid: EVC	reporter plasmid: acrABp	reporter plasmid: marRABp	reporter plasmid: micFp	reporter plasmid: ompFp	reporter plasmid: robp	reporter plasmid: soxSp	reporter plasmid: tolCp
18.9 µg/ml, genetic background: wild type	3.42	3.11	3.21	3.37	2.94	2.92	3.42	3.36
18.9 µg/ml, genetic background: ΔmarA	3.65	3.55	3.57	3.53	3.07	3.83	3.27	3.22
18.9 µg/ml, genetic background: Δrob	3.44	2.73	3.41	3.27	2.62	2.92	3.26	3.42
18.9 µg/ml, genetic background: ΔsoxS	3.57	3.33	2.812	3.15	3.32	3.19	3.31	3.42
37.8 µg/ml, genetic background: wild type	3.36	2.95	2.91	3.231	1.86	3.21	3.21	3.26
37.8 µg/ml, genetic background: ΔmarA	3.8	3.59	3.41	3.47	2.85	3.65	3.23	3.12
37.8 µg/ml, genetic background: Δrob	3.49	2.54	2.95	3.23	2.15	2.56	3.23	3.43
37.8 µg/ml, genetic background: ΔsoxS	3.71	3.12	2.8	3.25	3.2	2.6	2.89	3.477
75.6 µg/ml, genetic background: wild type	2.94	2.52	2.72	3.13	2.62	3.17	3.1	3.026
75.6 µg/ml, genetic background: ΔmarA	3.29	3.74	2.9	3.08	2.83	3.55	2.81	2.79
75.6 µg/ml, genetic background: Δrob	3.26	2.12	3.36	3.3	2.17	2.93	3.06	3.27
75.6 µg/ml, genetic background: ΔsoxS	3.62	3.51	2.93	3.14	3.2	3.11	2.8	3.528
151.1 µg/ml, genetic background: wild type	2.73	2.67	2.34	2.79	2.42	2.53	2.58	2.596
151.1 µg/ml, genetic background: ΔmarA	3.06	2.8	2.65	2.59	2.78	3.33	2.438	2.55
151.1 µg/ml, genetic background: Δrob	2.9	2.43	2.26	3.21	1.77	2.26	2.84	2.84
151.1 µg/ml, genetic background: ΔsoxS	3.092	2.89	2.82	2.76	2.64	2.52	2.58	3.17
